Measurements: PubChem BioAssay AID328 (DTP/NCI, 2004)
The list does not hold the whole screen: it is rich in T/C values a quarter to a half above the control, in often repeated tests (any T/C) and in doses without a T/C. Other doses and runs of a compound stand elsewhere. T/C: endpoint of the treated group in % of that of the vehicle group. Some entries give survivors of the animals treated and no T/C: the source holds a T/C of zero for them, seemingly a mark for toxic or unscored doses. Some doses without a T/C left all or most animals alive at the check, yet need not have been tolerated: survival well below the control is almost never listed, so the zero probably covers shortened survival too. Survivors were counted at the toxicity check, usually on the fifth day, unless a day is given; later deaths do not show. Schedule codes are those of the source, read here as Q, the interval in days (D) or hours (H), X, the number of doses. Where survival is the endpoint, this PubChem deposit counts one and a half times the control or more as active, and values a quarter to a half above the control carry no call in these data; other NCI protocols may use other cut-offs. Some entries hold several experiments; their values stand side by side, smallest first. Some T/C values carry the count of animals alive at the toxicity check (mostly the fifth day); where none is given, no animal had died by that day.

Tested on: BDF1 mice, P388 leukemia ip, median survival T/C
Assay: NCI In Vivo Anticancer Drug Screen. Data for tumor model P388 Leukemia (intraperitoneal) in B6D2F1 (BDF1) mice
Details: T/C endpoint: median survival time, higher T/C = longer survival
In short: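 Each value expresses how treatment altered survival: treated-mouse outcome over vehicle-mouse outcome, both groups bearing the transplanted tumour.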

[1] = dose: 100.0 mg/kg/injection, schedule: Q01DX009 (ip), vehicle: saline
[2] = dose: 100.0 mg/kg/injection, schedule: Q04DX003 (ip), vehicle: saline
[3] = dose: 50.0 mg/kg/injection, schedule: Q01DX009 (ip), vehicle: saline with Tween-80
[4] = dose: 100.0 mg/kg/injection, schedule: Q01DX009 (ip), vehicle: saline with Tween-80
[5] = dose: 100.0 mg/kg/injection, schedule: Q01DX009 (ip), vehicle: Klucel (hydroxypropylcellulose) (HPC)
[6] = dose: 200.0 mg/kg/injection, schedule: Q04DX003 (ip), vehicle: saline with Tween-80
[7] = dose: 200.0 mg/kg/injection, schedule: Q01DX009 (ip), vehicle: saline with Tween-80
[8] = dose: 200.0 mg/kg/injection, schedule: Q01DX009 (ip), vehicle: Klucel (hydroxypropylcellulose) (HPC)
[9] = dose: 400.0 mg/kg/injection, schedule: Q04DX003 (ip), vehicle: saline with Tween-80
[10] = dose: 1.0 mg/kg/injection, schedule: Q01DX009 (ip), vehicle: saline
[11] = dose: 50.0 mg/kg/injection, schedule: Q01DX009 (ip), vehicle: Klucel (hydroxypropylcellulose) (HPC)
[12] = dose: 300.0 mg/kg/injection, schedule: Q01DX009 (ip), vehicle: saline
[13] = dose: 400.0 mg/kg/injection, schedule: Q04DX003 (ip), vehicle: saline

`CCN1/C(=C/C=C/C=C\C=C\c2sc3ccc4ccccc4c3[n+]2CC)Sc2ccc3ccccc3c21` was tested, and the survivor count (dose: 6.25 mg/kg/injection, schedule: Q04DX002 (ip), vehicle: saline with Tween-80) was 6 of 6, the survivor count (dose: 12.5 mg/kg/injection, schedule: Q04DX002 (ip), vehicle: saline with Tween-80) was 6 of 6 and the survivor count (dose: 25.0 mg/kg/injection, schedule: Q04DX002 (ip), vehicle: saline with Tween-80) was 5 of 6. For the same molecule, the survivor count (dose: 50.0 mg/kg/injection, schedule: Q04DX002 (ip), vehicle: saline with Tween-80) was 4 of 6.
In the case of `C(COCC1CO1)OCC1CO1` (configuration not stated), the T/C (dose: 25.0 mg/kg/injection, schedule: Q04DX003 (ip), vehicle: saline with Tween-80) is reported as 125 % of control, the T/C (dose: 50.0 mg/kg/injection, schedule: Q04DX003 (ip), vehicle: saline) is reported as 125 and 129 % of control and the survivor count [1] is reported as 4 of 6. The T/C [2] was 145 % of control and the survivor count (dose: 200.0 mg/kg/injection, schedule: Q04DX003 (ip), vehicle: saline) was 6 of 6.
With `O=[N+]([O-])c1ccc(S(=O)(=O)Cc2ccccc2)c2nonc12` the survivor count [3] was 3 of 7 and the survivor count [4] was 0 of 7.
With `O=C(O)C1C(C(=O)O)C2(Cl)C(Cl)=C(Cl)C1(Cl)C2(Cl)Cl.[Co]` (configuration not stated) the survivor count [5] was 5 of 6.
In the case of `[Cl][Co][Cl].[NH-]CCC[NH-].[NH-]CCC[NH-]`, the T/C [2] is reported as 130 % of control.
With `OCCCN1CCCCC1CO` (configuration not stated) the T/C (dose: 50.0 mg/kg/injection, schedule: Q01DX009 (ip), vehicle: saline) was 135 % of control and the T/C [1] was 135 % of control.
For `Nc1[nH]c(=O)nc2nc[nH]c12`, the survivor count [1] was 6 of 6, the survivor count (dose: 200.0 mg/kg/injection, schedule: Q01DX009 (ip), vehicle: saline) was 6 of 6 and the survivor count (dose: 400.0 mg/kg/injection, schedule: Q01DX009 (ip), vehicle: saline) was 6 of 6.
In the case of `CCCNC(=O)Nc1cc(Cl)ccc1OC`, the T/C [6] is reported as 131 % of control.
With `N=C(N)c1ccc(NC(=S)Nc2ccc(C(=N)N)cc2)cc1` the survivor count [3] was 2 of 6, the survivor count [4] was 0 of 6 and the survivor count [7] was 0 of 6.
In the case of `COC(C(=O)C(O)C(C)O)C1CC2C=C3C=C(OC4CC(OC5CC(O)C(OC)C(C)O5)C(OC(C)=O)C(C)O4)C(C)C(=O)C3=C(O)C2=C(O)C1OC1CC(OC2CC(OC3CC(C)(O)C(OC(=O)C(C)C)C(C)O3)C(O)C(C)O2)C(O)C(C)O1` (configuration not stated), the survivor count (dose: 0.5 mg/kg/injection, schedule: Q01DX001 (ip), vehicle: other) is reported as 2 of 6, the survivor count (dose: 1.0 mg/kg/injection, schedule: Q01DX001 (ip), vehicle: other) is reported as 1 of 6 and the survivor count (dose: 31.2 micrograms/kg/injection, schedule: Q01DX009 (ip), vehicle: saline) is reported as 10 of 10. For the same molecule, the survivor count (dose: 37.0 micrograms/kg/injection, schedule: Q01DX009 (ip), vehicle: other) was 5 of 6, the survivor count (dose: 62.5 micrograms/kg/injection, schedule: Q01DX009 (ip), vehicle: saline) was 10 of 10 and the survivor count (dose: 62.5 micrograms/kg/injection, schedule: Q04DX003 (ip), vehicle: saline) was 10 of 10. The survivor count (dose: 75.0 micrograms/kg/injection, schedule: Q01DX009 (ip), vehicle: other) was 6 of 6, the T/C (dose: 125.0 micrograms/kg/injection, schedule: Q01DX001 (ip), vehicle: saline) was 145 % of control and the survivor count (dose: 125.0 micrograms/kg/injection, schedule: Q01DX009 (ip), vehicle: other) was 2 of 6. For the same molecule, the survivor count (dose: 125.0 micrograms/kg/injection, schedule: Q01DX009 (ip), vehicle: saline) was 9 of 10, the survivor count (dose: 125.0 micrograms/kg/injection, schedule: Q04DX003 (ip), vehicle: saline) was 10 of 10 and the survivor count (dose: 250.0 micrograms/kg/injection, schedule: Q01DX009 (ip), vehicle: other) was 0 of 6. The survivor count (dose: 250.0 micrograms/kg/injection, schedule: Q01DX009 (ip), vehicle: saline) was 6 of 10, the survivor count (dose: 250.0 micrograms/kg/injection, schedule: Q04DX003 (ip), vehicle: saline) was 10 of 10 and the T/C (dose: 250.0 micrograms/kg/injection, schedule: Q08DX002 (ip), vehicle: saline) was 130 % of control. The survivor count (dose: 500.0 micrograms/kg/injection, schedule: Q01DX001 (ip), vehicle: saline) was 10 of 10, the survivor count (dose: 500.0 micrograms/kg/injection, schedule: Q01DX009 (ip), vehicle: saline) was 0 of 10 and the survivor count (dose: 500.0 micrograms/kg/injection, schedule: Q04DX003 (ip), vehicle: saline) was 10 of 10. For the same molecule, the survivor count (dose: 1000.0 micrograms/kg/injection, schedule: Q01DX001 (ip), vehicle: saline) was 10 of 10, the survivor count (dose: 1000.0 micrograms/kg/injection, schedule: Q01DX009 (ip), vehicle: saline) was 0 of 10 and the survivor count (dose: 1000.0 micrograms/kg/injection, schedule: Q04DX003 (ip), vehicle: saline) was 7 of 10. The survivor count (dose: 1000.0 micrograms/kg/injection, schedule: Q08DX002 (ip), vehicle: saline) was 7 of 10.
For `Cc1n[nH]c(=O)[nH]c1=O`, the survivor count [8] was 6 of 6 and the survivor count (dose: 400.0 mg/kg/injection, schedule: Q01DX009 (ip), vehicle: Klucel (hydroxypropylcellulose) (HPC)) was 5 of 6.
`CC1CCC2CON(C(C)(C)C)C2C1` (configuration not stated) was tested, and the T/C (dose: 100.0 mg/kg/injection, schedule: Q04DX003 (ip), vehicle: saline with Tween-80) was 125 % of control, the survivor count [7] was 1 of 6 and the survivor count [6] was 4 of 6. For the same molecule, the survivor count [9] was 0 of 6.
In the case of `CN=NNc1ccccc1`, the T/C (dose: 99.0 mg/kg/injection, schedule: Q04DX003 (ip), vehicle: saline with Tween-80) is reported as 130 % of control, the survivor count (dose: 150.0 mg/kg/injection, schedule: Q01DX009 (ip), vehicle: other) is reported as 6 of 6 and the T/C (dose: 150.0 mg/kg/injection, schedule: Q04DX003 (ip), vehicle: saline with Tween-80) is reported as 140 % of control. For the same molecule, the survivor count (dose: 300.0 mg/kg/injection, schedule: Q01DX009 (ip), vehicle: other) was 6 of 6.
For `O=C1C(N2CCCC2)=C(N2CC2)C(=O)C(N2CCCC2)=C1N1CC1`, the T/C (dose: 0.5 mg/kg/injection, schedule: Q01DX009 (ip), vehicle: saline) was 131 % of control, the survivor count [10] was 5 of 6 and the survivor count (dose: 2.0 mg/kg/injection, schedule: Q01DX009 (ip), vehicle: saline) was 0 of 6.
`CCn1cnc2c(SC)nc(N)nc21` was tested, and the survivor count [11] was 5 of 6 and the survivor count [8] was 6 of 6.
For `CC[C@]1(O)C[C@H](OC2CC(N(C)C)C(OC3CC(O)C(O)C(C)O3)C(C)O2)c2c(cc3c(c2O)C(=O)c2c(O)ccc(O)c2C3=O)[C@H]1C(=O)OC` (some centres not stated), the T/C (dose: 0.2 mg/kg/injection, schedule: Q01DX009 (ip), vehicle: Klucel (hydroxypropylcellulose) (HPC)) was 128 and 129 % of control, the T/C (dose: 0.4 mg/kg/injection, schedule: Q01DX009 (ip), vehicle: Klucel (hydroxypropylcellulose) (HPC)) was 134 % of control and the survivor count (dose: 16.0 mg/kg/injection, schedule: Q04DX003 (ip), vehicle: other) was 8 of 8.
In the case of `Cc1ccc(CNc2cccnc2)cc1`, the survivor count [7] is reported as 5 of 6.
For `COc1ccc2c(c1)N(C)CCCC2=O`, the survivor count [12] was 2 of 6 and the survivor count [13] was 2 of 6.
In the case of `COC(=O)C12OCC34C(CC(C(C)=O)C(C)(CC(=O)O)C3C(O)C1O)OC(=O)C(OC(=O)/C=C(\C)C(C)C)C24` (configuration not stated), the survivor count [10] is reported as 6 of 6.
In the case of `NC(=O)NN=C1COC(c2ccccc2)OC1` (configuration not stated), the survivor count [12] is reported as 0 of 6 and the survivor count [13] is reported as 1 of 6.
With `c1ccc(-c2cc(-c3ccccc3)[s+]s2)cc1` the T/C [3] was 126 % of control [5 of 6 alive], the T/C [4] was 126 % of control and the survivor count [7] was 2 of 6. For the same molecule, the T/C [6] was 132 % of control, the survivor count (dose: 250.0 mg/kg/injection, schedule: Q04DX003 (ip), vehicle: saline with Tween-80) was 2 of 6 and the survivor count [9] was 2 of 6.
With `S=c1nc[nH]c2c1ncn2CN1CCOCC1` the T/C [11] was 135 % of control, the T/C [5] was 135 % of control and the survivor count [8] was 3 of 6.
